Drawing on paper PMC4514670, this text covers binding for two substances.

By UniProt entry, the sequences of proteins in these tests, tags left out. Where a name states a change or a piece, a line headed by the entry shows the natural chain unless it says otherwise.
UniProt Q9WUF3: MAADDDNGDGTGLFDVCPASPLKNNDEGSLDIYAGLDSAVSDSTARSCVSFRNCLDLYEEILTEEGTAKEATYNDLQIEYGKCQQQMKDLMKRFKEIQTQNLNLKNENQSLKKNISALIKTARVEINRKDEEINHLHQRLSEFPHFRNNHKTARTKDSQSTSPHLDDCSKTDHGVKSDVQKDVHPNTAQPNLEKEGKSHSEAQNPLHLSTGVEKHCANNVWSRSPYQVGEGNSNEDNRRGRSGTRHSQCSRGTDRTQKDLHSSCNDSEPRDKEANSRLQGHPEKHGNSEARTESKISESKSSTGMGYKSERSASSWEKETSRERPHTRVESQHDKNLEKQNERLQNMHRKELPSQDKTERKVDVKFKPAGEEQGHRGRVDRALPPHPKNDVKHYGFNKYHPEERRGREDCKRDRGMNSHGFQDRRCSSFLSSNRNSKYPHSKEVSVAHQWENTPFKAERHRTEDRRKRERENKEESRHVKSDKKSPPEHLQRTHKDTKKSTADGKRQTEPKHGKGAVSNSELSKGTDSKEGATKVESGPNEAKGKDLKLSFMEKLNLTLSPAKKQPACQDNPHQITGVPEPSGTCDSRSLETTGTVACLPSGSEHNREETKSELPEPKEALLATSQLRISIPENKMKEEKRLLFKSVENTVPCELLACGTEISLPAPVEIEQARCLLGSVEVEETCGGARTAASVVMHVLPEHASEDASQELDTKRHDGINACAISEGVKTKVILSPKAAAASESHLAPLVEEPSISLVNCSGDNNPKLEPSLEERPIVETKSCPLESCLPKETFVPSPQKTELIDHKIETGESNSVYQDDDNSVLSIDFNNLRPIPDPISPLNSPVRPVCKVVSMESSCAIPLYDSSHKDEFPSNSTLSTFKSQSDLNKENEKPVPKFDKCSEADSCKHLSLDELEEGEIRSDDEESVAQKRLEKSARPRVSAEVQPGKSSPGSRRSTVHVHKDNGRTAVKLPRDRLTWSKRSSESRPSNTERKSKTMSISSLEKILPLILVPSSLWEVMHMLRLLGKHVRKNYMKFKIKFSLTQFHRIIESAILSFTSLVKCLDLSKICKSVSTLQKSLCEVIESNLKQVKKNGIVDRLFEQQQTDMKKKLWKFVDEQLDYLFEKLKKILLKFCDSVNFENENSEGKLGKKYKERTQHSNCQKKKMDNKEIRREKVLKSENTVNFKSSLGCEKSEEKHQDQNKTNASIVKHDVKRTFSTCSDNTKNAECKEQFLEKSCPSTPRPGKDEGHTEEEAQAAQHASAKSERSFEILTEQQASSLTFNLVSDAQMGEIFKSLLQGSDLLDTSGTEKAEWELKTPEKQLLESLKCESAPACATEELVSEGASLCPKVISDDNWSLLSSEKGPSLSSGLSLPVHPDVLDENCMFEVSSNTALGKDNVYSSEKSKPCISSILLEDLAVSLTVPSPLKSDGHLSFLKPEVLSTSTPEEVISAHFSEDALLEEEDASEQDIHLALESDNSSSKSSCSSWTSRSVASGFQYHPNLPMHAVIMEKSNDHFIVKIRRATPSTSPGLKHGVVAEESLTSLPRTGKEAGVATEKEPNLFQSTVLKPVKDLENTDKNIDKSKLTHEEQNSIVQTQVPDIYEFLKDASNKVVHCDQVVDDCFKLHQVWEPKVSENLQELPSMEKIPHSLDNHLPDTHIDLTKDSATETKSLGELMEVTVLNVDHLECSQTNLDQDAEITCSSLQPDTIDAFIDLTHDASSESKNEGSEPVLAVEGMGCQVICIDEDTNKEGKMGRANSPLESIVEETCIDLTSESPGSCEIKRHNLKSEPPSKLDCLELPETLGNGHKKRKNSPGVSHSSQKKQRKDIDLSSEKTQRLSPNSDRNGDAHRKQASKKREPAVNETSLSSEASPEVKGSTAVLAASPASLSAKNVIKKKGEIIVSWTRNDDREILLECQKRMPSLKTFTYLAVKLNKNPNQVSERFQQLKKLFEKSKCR
UniProt P15806: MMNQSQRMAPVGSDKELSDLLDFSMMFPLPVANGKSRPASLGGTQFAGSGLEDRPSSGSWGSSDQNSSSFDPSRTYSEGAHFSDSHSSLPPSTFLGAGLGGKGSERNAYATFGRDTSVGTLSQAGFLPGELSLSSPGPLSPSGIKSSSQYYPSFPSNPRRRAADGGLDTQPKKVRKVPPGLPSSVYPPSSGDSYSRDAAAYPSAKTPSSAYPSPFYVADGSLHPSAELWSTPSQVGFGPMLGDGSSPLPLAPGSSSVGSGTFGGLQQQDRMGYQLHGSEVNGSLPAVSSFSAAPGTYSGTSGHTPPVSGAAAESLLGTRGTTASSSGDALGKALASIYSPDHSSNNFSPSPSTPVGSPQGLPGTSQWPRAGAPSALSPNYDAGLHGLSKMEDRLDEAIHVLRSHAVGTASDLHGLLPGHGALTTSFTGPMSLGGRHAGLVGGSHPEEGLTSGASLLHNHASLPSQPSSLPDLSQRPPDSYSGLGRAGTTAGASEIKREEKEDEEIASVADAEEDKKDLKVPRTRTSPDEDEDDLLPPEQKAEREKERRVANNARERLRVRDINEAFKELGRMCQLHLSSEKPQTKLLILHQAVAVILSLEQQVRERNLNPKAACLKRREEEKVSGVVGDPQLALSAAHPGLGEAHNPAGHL

No constants are given. Whether binding was seen depends on the method and setting. Binding seen in cells or lysates may run through a third protein. Some entries that bind do so weakly or less than the wild type. For part of these data: Where a sequence is shown, tags or fusion partners need not be part of it.

Assay [1] deals with Flag-FLASH (full-length mouse FLASH) (mouse) (UniProt Q9WUF3). Description: co-IP; Flag-FLASH (full length) co-expressed with Myc-tagged E12 or E47 constructs; co-transfected MC lysate by the legend (the methods name CHO-K1 cells); anti-FLAG monoclonal antibody, immunoblot.
In another assay the target is T1, HA-tagged Id3 (UniProt P41133).
T1 sequence: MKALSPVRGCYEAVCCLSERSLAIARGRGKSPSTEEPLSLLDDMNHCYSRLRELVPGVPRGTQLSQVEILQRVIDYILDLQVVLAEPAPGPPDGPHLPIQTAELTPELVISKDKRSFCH
The assay is described as follows: co-IP; CHO-K1 cells co-transfected with Myc-tagged E12-bHLH and HA-tagged Id3 or ΔFLASH; lysate immunoprecipitated with anti-HA antibody, blotted with anti-Myc antibody; 50 mmol/L Tris-HCl pH 7.4, 150 mM NaCl, 1% NP-40, 0.5% deoxycholate.

For “Myc-tagged full-length mouse E12 (from UniProt P15806 1-651)”, the binding result in assay [1] is on record as “binds”. In the case of “Myc-tagged E12-bHLH (from UniProt P15806 505-651) (domain or fragment)”, the binding result (in assay [1]; in the assay with HA-tagged Id3) was “binds” each time.
